Reference: patent US5744316A, “Isolated, tyrosinase derived peptides and uses thereof” (Ludwig Institute for Cancer Research, priority 1996, dated 1998)
At least one peptide structure holds a part that was inferred or is arguable (an end, a ring closure or a residue). Where no end group is shown, it is not given here.

How the values were obtained:
Type in all cases: cell-based, human
[1] = tested on: MZ2 - EBV (expresses HLA-B44); experiment: lysis by CTL 22/31 of peptide-pulsed MZ2-EBV (Example 13)
[2] = tested on: Rosi - EBV (expresses HLA-B44); experiment: lysis by CTL 22/31 of peptide-pulsed Rosi-EBV (Example 13); conditions: for lysis (percent chromium release): Rosi - EBV
[3] = tested on: HLA-B*4403 positive EBV transformed lymphoblastoid cell lines; experiment: lysis of peptide-pulsed HLA-B*4403 lymphoblastoid lines (Example 16); conditions: HLA-B*4403 positive cells, FIG. 10
[4] = tested on: HLA-B*4402 EBV transformed lymphoblastoid cell lines; experiment: lysis of peptide-pulsed HLA-B*4402 lymphoblastoid lines (Example 16); conditions: HLA-B*4402 lines, FIG. 10
[5] = tested on: Rosi EBV, presents HLA-B44; experiment: lysis by CTL 22/31, tyrosinase peptides on B44 (Table 7, FIG. 8); conditions: for lysis / recognition by CTL 22/31: summary of Table 7 and FIG. 8
[6] = MZ2-CTL-22/31 60:1, dose 100 nM
[7] = MZ2-CTL-22/31 60:1, dose 300 nM
[8] = MZ2-CTL-22/31 45:1, +W (preincubated with antibody W6/32), dose 1 μM
[9] = MZ2-CTL-22/31 45:1, +W, dose 3 nM
[10] = MZ2-CTL-22/31 45:1, +W, dose 10 nM
[11] = MZ2-CTL-22/31 45:1, +W, dose 30 nM
[12] = MZ2-CTL-22/31 45:1, +W, dose 100 nM
[13] = MZ2-CTL-22/31 45:1, +W, dose 300 nM
[14] = MZ2-CTL-22/31 45:1, -W (no preincubation with W6/32), dose 1 μM
[15] = MZ2-CTL-22/31 45:1, -W, dose 3 nM
[16] = MZ2-CTL-22/31 45:1, -W, dose 10 nM
[17] = MZ2-CTL-22/31 45:1, -W, dose 30 nM
[18] = MZ2-CTL-22/31 45:1, -W, dose 100 nM
[19] = MZ2-CTL-22/31 45:1, -W, dose 300 nM
[20] = MZ2-CTL-22/31 45:1, +W, dose 0.3 nM
[21] = MZ2-CTL-22/31 45:1, +W, dose 1 nM

| Sequence | lysis (percent chromium release) [5, 8] [%] | lysis (percent chromium release) [5, 9] [%] | lysis (percent chromium release) [5, 10] [%] | lysis (percent chromium release) [5, 11] [%] | lysis (percent chromium release) [5, 12] [%] | lysis (percent chromium release) [5, 13] [%] | lysis (percent chromium release) [5, 14] [%] | lysis (percent chromium release) [5, 15] [%] | lysis (percent chromium release) [5, 16] [%] | lysis (percent chromium release) [5, 17] [%] | lysis (percent chromium release) [5, 18] [%] | lysis (percent chromium release) [5, 19] [%] | lysis (percent chromium release) [5, 20] [%] | lysis (percent chromium release) [5, 21] [%] | lysis / recognition by CTL 22/31 [5] | also measured |
| --- | --- | --- | --- | --- | --- | --- | --- | --- | --- | --- | --- | --- | --- | --- | --- | --- |
| SEIWRDIDFAHEA [SEIWRDIDFAHEA] |  |  |  |  |  |  |  |  |  |  |  |  |  |  |  | lysis (percent chromium release) ([1]; MZ2-CTL-22/31 60:1, dose 3 nM): 6%; lysis (percent chromium release) ([1]; MZ2-CTL-22/31 60:1, dose 10 nM): 5%; lysis (percent chromium release) ([1]; MZ2-CTL-22/31 60:1, dose 30 nM): 4%; lysis (percent chromium release) [1, 6]: 17%; lysis (percent chromium release) [1, 7]: 33%; lysis (percent chromium release) ([1]; MZ2-CTL-22/31 60:1, dose 1 μM): 63%; lysis (percent chromium release) ([1]; MZ2-CTL-22/31 60:1, dose 3 μM): 66%; lysis (percent chromium release) ([1]; MZ2-CTL-22/31 60:1, dose 10 μM): 72%; lysis (percent chromium release) ([1]; MZ2-CTL-22/31 60:1, dose 30 μM): 71%; lysis (percent chromium release) ([2]; MZ2-CTL-22/31 60:1, dose 3 nM): 10%; lysis (percent chromium release) ([2]; MZ2-CTL-22/31 60:1, dose 10 nM): 9%; lysis (percent chromium release) ([2]; MZ2-CTL-22/31 60:1, dose 30 nM): 21%; lysis (percent chromium release) [2, 6]: 44%; lysis (percent chromium release) [2, 7]: 60%; lysis (percent chromium release) ([2]; MZ2-CTL-22/31 60:1, dose 1 μM): 79%; lysis (percent chromium release) ([2]; MZ2-CTL-22/31 60:1, dose 3 μM): 77%; lysis (percent chromium release) ([2]; MZ2-CTL-22/31 60:1, dose 10 μM): 85%; lysis (percent chromium release) ([2]; MZ2-CTL-22/31 60:1, dose 30 μM): 83%; lysis by CTL 22/31 of peptide treated cells ([2]; two EBV transfected cell lines which express HLA-B44): sensitive to lysis |
| EIWRDIDFA [SEQ ID NO: 8, Glu Ile Trp Arg Asp Ile Asp Phe Ala] | 7 | 1 | 1 | 0 | 2 | 4 | 11 | 2 | 4 | 6 | 8 | 6 |  |  |  | lysis by CTL 22/31 of peptide pulsed cells [3]: lysed very well; lysis by CTL 22/31 of peptide pulsed cells [4]: little, if any lysis |
| SEIWRDIDF [SEQ ID NO: 7, Ser Glu Ile Trp Arg Asp Ile Asp Phe] | 93 | 4 | 12 | 37 | 73 | 81 |  |  |  |  |  |  | 1 | 4 | did provoke lysis | lysis (percent chromium release) ([5]; MZ2-CTL-22/31 45:1, column 7 headed +W, dose 0.3 nM): 2%; lysis (percent chromium release) ([5]; MZ2-CTL-22/31 45:1, column 7 headed +W, dose 1 nM): 3%; lysis (percent chromium release) ([5]; MZ2-CTL-22/31 45:1, column 7 headed +W, dose 3 nM): 7%; lysis (percent chromium release) ([5]; MZ2-CTL-22/31 45:1, column 7 headed +W, dose 10 nM): 8%; lysis (percent chromium release) ([5]; MZ2-CTL-22/31 45:1, column 7 headed +W, dose 30 nM): 21%; lysis (percent chromium release) ([5]; MZ2-CTL-22/31 45:1, column 7 headed +W, dose 100 nM): 64%; lysis (percent chromium release) ([5]; MZ2-CTL-22/31 45:1, column 7 headed +W, dose 300 nM): 97%; lysis (percent chromium release) ([5]; MZ2-CTL-22/31 45:1, column 7 headed +W, dose 1 μM): 99% |
| SEIWRDIDFA [SEQ ID NO: 6, Ser Glu Ile Trp Arg Asp Ile Asp Phe Ala] | 91 | 3 | 4 | 17 | 43 | 76 | 98 | 0 | 5 | 15 | 45 | 77 | 1 | 2 | did provoke lysis |  |
